Results published in PMC8096138.

Biological target: SARS-CoV-2 ORF3a, expressed in human cells (SARS-CoV-2), P0DTC3
Assay: affinity purification with mass spectrometry
Settings: remark: other sources report otherwise

B1: VPS39, endogenous in HeLa cells, Q96JC1 1-886 (protein)
chain: MHDAFEPVPILEKLPLQIDCLAAWEEWLLVGTKQGHLLLYRIRKDVVPADVASPESGSCNRFEVTLEKSNKNFSKKIQQIHVVSQFKILVSLLENNIYVHDLLTFQQITTVSKAKGASLFTCDLQHTETGEEVLRMCVAVKKKLQLYFWKDREFHELQGDFSVPDVPKSMAWCENSICVGFKRDYYLIRVDGKGSIKELFPTGKQLEPLVAPLADGKVAVGQDDLTVVLNEEGICTQKCALNWTDIPVAMEHQPPYIIAVLPRYVEIRTFEPRLLVQSIELQRPRFITSGGSNIIYVASNHFVWRLIPVPMATQIQQLLQDKQFELALQLAEMKDDSDSEKQQQIHHIKNLYAFNLFCQKRFDESMQVFAKLGTDPTHVMGLYPDLLPTDYRKQLQYPNPLPVLSGAELEKAHLALIDYLTQKRSQLVKKLNDSDHQSSTSPLMEGTPTIKSKKKLLQIIDTTLLKCYLHTNVALVAPLLRLENNHCHIEESEHVLKKAHKYSELIILYEKKGLHEKALQVLVDQSKKANSPLKGHERTVQYLQHLGTENLHLIFSYSVWVLRDFPEDGLKIFTEDLPEVESLPRDRVLGFLIENFKGLAIPYLEHIIHVWEETGSRFHNCLIQLYCEKVQGLMKEYLLSFPAGKTPVPAGEEEGELGEYRQKLLMFLEISSYYDPGRLICDFPFDGLLEERALLLGRMGKHEQALFIYVHILKDTRMAEEYCHKHYDRNKDGNKDVYLSLLRMYLSPPSIHCLGPIKLELLEPKANLQAALQVLELHHSKLDTTKALNLLPANTQINDIRIFLEKVLEENAQKKRFNQVLKNLLHAEFLRVQEERILHQQVKCIITEEKVCMVCKKKIGNSAFARYPNGVVVHYFCSKEVNPADT
- binding: binds

These are yes or no findings as the source states them, for the method shown. Binding seen in cells or lysates may run through a third protein. Here binding means that the protein was enriched with, or labelled near, the bait; the list need not be complete.
